# Laboratory results reported in the supplement of paper PMC3334620.
# In all, about 33,000 sequences were measured (“E-score (-0.5 to 0.5)”: median about -0.015, highest 2% from about 0.3 on). Some of the results follow.
# Target: T1, Abf1 (UniProt P14164)
# T1 sequence: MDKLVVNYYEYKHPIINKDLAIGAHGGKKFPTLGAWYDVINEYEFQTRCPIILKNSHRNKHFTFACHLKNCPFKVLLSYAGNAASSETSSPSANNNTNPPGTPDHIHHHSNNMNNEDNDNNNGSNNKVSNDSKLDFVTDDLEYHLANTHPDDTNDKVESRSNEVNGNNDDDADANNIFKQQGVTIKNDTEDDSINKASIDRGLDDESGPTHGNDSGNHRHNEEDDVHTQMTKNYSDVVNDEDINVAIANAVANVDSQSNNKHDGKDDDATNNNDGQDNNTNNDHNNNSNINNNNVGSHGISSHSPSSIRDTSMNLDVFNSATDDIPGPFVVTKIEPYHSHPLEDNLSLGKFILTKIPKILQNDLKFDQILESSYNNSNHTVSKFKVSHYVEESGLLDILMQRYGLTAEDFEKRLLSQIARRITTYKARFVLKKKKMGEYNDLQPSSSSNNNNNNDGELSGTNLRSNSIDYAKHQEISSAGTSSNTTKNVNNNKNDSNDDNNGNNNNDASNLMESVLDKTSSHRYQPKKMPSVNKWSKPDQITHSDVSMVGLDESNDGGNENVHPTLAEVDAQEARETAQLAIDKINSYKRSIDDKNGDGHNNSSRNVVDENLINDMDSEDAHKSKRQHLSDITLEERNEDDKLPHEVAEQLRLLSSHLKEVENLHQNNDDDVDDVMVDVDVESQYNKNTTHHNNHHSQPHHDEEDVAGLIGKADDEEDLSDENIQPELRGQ
# Assay: PBM E-score (8-mer binding enrichment) (E-score (-0.5 to 0.5)); higher = stronger / more preferred TF binding
# Conditions: protein concentration: 200 nM; construct: GST-full length
# Procedure: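 Universal 'all 10-mer' protein binding microarrays (Agilent AMADID 015681) probed with GST-tagged S. cerevisiae TFs (full-length or DBD) made by in vitro transcription/translation (PURExpress), about 100-200 nM. Bound TF was detected with fluorescent anti-GST. Each ungapped 8-mer (which stands for itself and its reverse complement) is scored by the PBM enrichment score (E-score), a modified Wilcoxon-Mann-Whitney statistic from -0.5 to +0.5, computed with the Universal PBM Analysis Suite. Scale: above 0.35 generally sequence-specific binding.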
row,Sequence,PBM E-score
1,CCAGTGCG,-0.0421
2,ATTCCGCC,-0.0862
3,CAAACAGA,0.0366
4,ACCAATTC,0.0749
5,CGGCTCCA,-0.171
6,ATCTAGGA,0.246
7,ACAAGCGT,-0.251
8,AATAAGGT,-0.0898
9,ATGATAAG,0.291
10,ACTCTATC,-0.0127
11,GGTGCTTA,-0.078
12,ATACGTTC,0.0901
13,CAAATCGA,0.0162
14,GATACGAA,0.309
15,ACAGTACG,0.173
16,GACGCCGC,-0.0529
17,ACCCGGCA,0.0507
18,CAACAAAG,-0.0536
19,CCGCAATA,0.0386
20,ATCGGGCG,-0.248
21,CGATGAGC,-0.142
22,AATAGTAC,0.132
23,ATGCGCAT,0.293
24,AAGGTGGC,-0.0615
25,CTATGAAG,-0.0657

row,Sequence,PBM E-score
1,GCGTGAAC,-0.0162
2,CGTACGAG,0.343
3,CGTTTGAA,0.297
4,CTACGCTC,-0.0362
5,ATCTCCTC,-0.0278
6,AGTAGGGA,-0.0301
7,GCTCTGTA,-0.0948
8,AGTAAAAA,0.0745
9,CCGAATGA,0.192
10,CGGCGCAC,0.0813
11,AGCCTCAC,-0.154
12,ACGGGGGG,-0.0967
13,ACCACCGT,0.153
14,AATGAACC,-0.0853
15,AATATTCC,0.135
16,AAATAATT,0.212
17,GCGCCCCC,-0.324
18,CCGTCGAG,0.218
19,ATTTTGCG,0.0127
20,AAGGGTTA,0.0193
21,ATACTGTC,-0.0337
22,CTCCTGCA,-0.227
23,AGGCGCGC,-0.125
24,AGAAGTCA,0.18
25,ATGTTTAA,0.136

row,Sequence,PBM E-score
1,AGAGAACG,0.172
2,ACAAAGGG,-0.106
3,CGGCTACG,-0.182
4,GAGTCTAA,-0.0556
5,CGACAGAA,0.0352
6,CGTGCCAC,0.114
7,GCTTTCAA,0.128
8,GGCACACA,-0.115
9,CGTGTTAA,0.198
10,CATCCGAG,-0.169
11,GGAGCTCA,-0.186
12,ACAGGCTC,-0.0662
13,ATTGCTAG,-0.12
14,AGCGTGGA,0.125
15,GGGGTAAC,-0.117
16,CGGTTCAA,0.0375
17,GCCAGGGA,-0.181
18,ATCACAAA,0.159
19,AACATCGA,0.12
20,CCGTTAAA,0.0775
21,AGTCCTTA,-0.0603
22,CTCAGAAC,0.0271
23,CACAGCCG,-0.0828
24,CTACCAAC,0.229
25,CTTACCGC,-0.258

# Five records picked at random from the list so far:
row,Sequence,PBM E-score
3,CGGCTACG,-0.182
25,CTTACCGC,-0.258
9,CGTGTTAA,0.198
16,CGGTTCAA,0.0375
23,CACAGCCG,-0.0828

# Reformatted: entries from further up.
row	Sequence	PBM E-score
17	GCCAGGGA	-0.181
18	ATCACAAA	0.159
19	AACATCGA	0.12

# Carrying on.

row,Sequence,PBM E-score
1,AGACGCAG,-0.229
2,GGACCGCA,-0.155
3,ACTCAACA,-0.0269
4,CGTGAGGA,0.0867
5,GACGCTGC,-0.121
6,GCCAATGA,-0.0329
7,AGTTACCC,-0.0787
8,ACTAAAGA,0.0616
9,CAGTTTTA,-0.103
10,ACCCTAGA,-0.0437
11,CTTCAAAG,-0.0884
12,ATCAGGAT,-0.0211
13,CAGTCCAC,-0.061
14,CCAGGTAG,-0.228
15,CGACGTAG,0.134
16,CAATTCGA,0.0173
17,GCTTATCC,-0.103
18,ATGTACAG,-0.0808
19,AGAATTTC,-0.109
20,ATCCGGTA,-0.0976
21,ATCCGGAT,-0.131
22,AGAGATGC,0.089
23,ATGTCCAG,0.0563
24,CCAAAGGA,-0.255
25,ACATCAAA,0.0333

row,Sequence,PBM E-score
1,ATTTGAAA,0.0979
2,ACAACCCT,-0.134
3,ACCGTACG,0.34
4,GGATCGAC,-0.0847
5,GGCAGAGA,0.0118
6,CCAGCTTA,-0.0646
7,AATATAAG,0.196
8,AACCTGAT,0.0781
9,AATACTGT,0.00307
10,CACCGGCG,-0.0421
11,AACTGCAT,0.0766
12,TGACGCAA,-0.0094
13,CAATCCTC,0.0413
14,CGGCCATC,-0.17
15,ACGAATCA,0.258
16,AATATGCT,0.0979
17,AGTGGGGG,-0.323
18,AGAAGTTG,-0.0778
19,ATGGAGCC,-0.27
20,TAATGTGA,0.103
21,CTGTGGAC,-0.166
22,CCCCGGGC,-0.231
23,GTAGTTCA,-0.261
24,CAAGGCAC,-0.211
25,AAGCACTG,-0.132

row,Sequence,PBM E-score
1,GTACCTGA,0.0126
2,TATAAGCA,0.196
3,AGATATTG,0.146
4,AACTCCTA,0.0268
5,CCGTTTGC,-0.0132
6,GAGGACTC,-0.235
7,CATACCAG,-0.218
8,GCTGGTTA,-0.0104
9,AAAGTTAG,-0.0275
10,ATGTCGCC,0.116
11,CACAAAAA,0.0732
12,ATATGAAG,0.0962
13,ATGTGCAA,-0.0475
14,CACTAGCC,0.144
15,ACGATTAT,0.179
16,AGCAGGTG,-0.0258
17,AACCGCCT,-0.101
18,GCGCCCCA,-0.155
19,AACAGCTC,-0.292
20,AGGAAATG,0.0706
21,TAAGTAAA,0.0817
22,ATTTTGAG,0.192
23,CGGTCACC,0.166
24,AGCGGGCA,-0.22
25,CAGTTGCG,-0.0457

row,Sequence,PBM E-score
1,AAGCTAAA,-0.0592
2,ACAGTTTG,-0.0118
3,AATCCACC,-0.0574
4,ACACTGGT,-0.0409
5,ATAACGTG,0.203
6,CCGTACAA,0.432
7,CGAGCCAG,0.101
8,AGCCTATC,-0.0675
9,CAAGCCAG,-0.132
10,CAAATGGA,-0.0896
11,ACTGTACG,0.123
12,ACCCCGGG,-0.0061
13,ATTATCGG,0.0733
14,GGGAGTCA,-0.245
15,GCTCCATA,-0.193
16,CGTGCTCC,-0.0862
17,ACCCCATG,-0.0419
18,CTGCAAGA,-0.0282
19,ATAACCAT,0.0871
20,GACAGAAC,0.0672
21,GACTCTCC,-0.0969
22,AAATCCGT,0.0895
